In the supplement of paper PMC12067093, “Discovery and optimisation of a covalent ligand for TRIM25 and its application to targeted protein ubiquitination” (Chemical Science, 2025):
The other results are listed elsewhere or left out.

Chains of the proteins cited; added tags and fusions are not shown. Lines headed by an entry give the natural chain unless they say otherwise; changes in a name come on top.
UniProt P19174: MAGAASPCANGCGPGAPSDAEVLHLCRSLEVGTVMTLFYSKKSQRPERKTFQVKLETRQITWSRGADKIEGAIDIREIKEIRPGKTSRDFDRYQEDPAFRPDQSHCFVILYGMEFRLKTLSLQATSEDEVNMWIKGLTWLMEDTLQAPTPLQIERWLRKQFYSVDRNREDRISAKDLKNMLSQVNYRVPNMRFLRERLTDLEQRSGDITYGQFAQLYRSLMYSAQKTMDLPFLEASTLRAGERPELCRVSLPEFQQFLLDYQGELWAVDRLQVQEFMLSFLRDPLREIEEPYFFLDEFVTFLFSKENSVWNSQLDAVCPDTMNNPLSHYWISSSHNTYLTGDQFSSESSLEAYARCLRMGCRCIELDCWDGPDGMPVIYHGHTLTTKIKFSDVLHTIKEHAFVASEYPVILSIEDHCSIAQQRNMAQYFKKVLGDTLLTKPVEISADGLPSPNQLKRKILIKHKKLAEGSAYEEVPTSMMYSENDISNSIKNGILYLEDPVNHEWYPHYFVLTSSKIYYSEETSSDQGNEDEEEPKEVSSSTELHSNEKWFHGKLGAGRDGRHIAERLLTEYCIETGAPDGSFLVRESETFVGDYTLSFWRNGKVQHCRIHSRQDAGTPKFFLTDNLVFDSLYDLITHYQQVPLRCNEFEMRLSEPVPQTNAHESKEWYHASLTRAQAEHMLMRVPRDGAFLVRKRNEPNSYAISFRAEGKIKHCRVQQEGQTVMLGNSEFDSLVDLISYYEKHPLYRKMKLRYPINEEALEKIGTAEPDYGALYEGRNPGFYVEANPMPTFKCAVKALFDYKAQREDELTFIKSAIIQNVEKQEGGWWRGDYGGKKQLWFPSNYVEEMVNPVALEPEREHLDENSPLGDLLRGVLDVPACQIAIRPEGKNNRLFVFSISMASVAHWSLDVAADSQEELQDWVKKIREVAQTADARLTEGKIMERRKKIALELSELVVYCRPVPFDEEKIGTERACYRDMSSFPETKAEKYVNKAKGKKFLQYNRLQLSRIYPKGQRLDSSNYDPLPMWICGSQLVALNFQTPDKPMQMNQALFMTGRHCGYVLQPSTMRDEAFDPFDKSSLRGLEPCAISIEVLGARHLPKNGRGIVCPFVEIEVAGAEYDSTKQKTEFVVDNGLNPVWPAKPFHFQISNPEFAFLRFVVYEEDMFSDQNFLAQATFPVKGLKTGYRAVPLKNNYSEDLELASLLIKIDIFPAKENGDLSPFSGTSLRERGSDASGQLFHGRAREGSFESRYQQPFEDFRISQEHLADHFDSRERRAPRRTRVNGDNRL
UniProt Q99570, whole entry, looked up: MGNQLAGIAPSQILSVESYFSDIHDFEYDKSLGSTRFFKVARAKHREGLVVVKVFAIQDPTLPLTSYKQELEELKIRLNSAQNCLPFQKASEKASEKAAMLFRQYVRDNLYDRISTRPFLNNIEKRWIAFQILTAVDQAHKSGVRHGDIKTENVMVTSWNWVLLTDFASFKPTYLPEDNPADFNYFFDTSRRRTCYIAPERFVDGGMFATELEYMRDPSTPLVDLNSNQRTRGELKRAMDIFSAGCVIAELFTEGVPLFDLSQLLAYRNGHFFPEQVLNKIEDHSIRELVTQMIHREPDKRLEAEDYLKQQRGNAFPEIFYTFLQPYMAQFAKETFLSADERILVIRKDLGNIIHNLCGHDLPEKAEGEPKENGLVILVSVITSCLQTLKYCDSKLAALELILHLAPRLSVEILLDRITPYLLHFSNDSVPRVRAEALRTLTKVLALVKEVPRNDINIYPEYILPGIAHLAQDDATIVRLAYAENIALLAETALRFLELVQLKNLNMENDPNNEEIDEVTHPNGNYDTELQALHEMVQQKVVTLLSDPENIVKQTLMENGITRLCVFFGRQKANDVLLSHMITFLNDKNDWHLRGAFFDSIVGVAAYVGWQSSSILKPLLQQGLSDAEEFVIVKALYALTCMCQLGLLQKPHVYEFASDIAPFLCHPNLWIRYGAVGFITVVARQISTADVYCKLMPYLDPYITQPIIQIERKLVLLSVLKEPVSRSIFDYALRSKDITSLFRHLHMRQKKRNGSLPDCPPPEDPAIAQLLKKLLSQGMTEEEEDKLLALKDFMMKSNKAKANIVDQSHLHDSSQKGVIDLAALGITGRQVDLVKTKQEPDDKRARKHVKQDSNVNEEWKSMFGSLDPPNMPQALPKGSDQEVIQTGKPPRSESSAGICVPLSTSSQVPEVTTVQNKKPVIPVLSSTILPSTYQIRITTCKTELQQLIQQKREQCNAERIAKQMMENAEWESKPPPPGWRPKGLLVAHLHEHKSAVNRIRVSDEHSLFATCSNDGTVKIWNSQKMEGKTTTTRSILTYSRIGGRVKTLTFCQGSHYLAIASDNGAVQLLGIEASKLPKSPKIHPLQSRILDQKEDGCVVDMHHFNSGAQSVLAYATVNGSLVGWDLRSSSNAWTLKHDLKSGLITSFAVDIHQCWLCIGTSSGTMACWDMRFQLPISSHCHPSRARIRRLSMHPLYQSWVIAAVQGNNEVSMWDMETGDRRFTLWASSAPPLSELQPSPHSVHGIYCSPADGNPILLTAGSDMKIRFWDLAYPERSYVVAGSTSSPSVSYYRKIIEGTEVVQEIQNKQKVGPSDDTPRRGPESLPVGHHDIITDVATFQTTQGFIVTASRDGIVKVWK
UniProt P53350, whole entry, looked up: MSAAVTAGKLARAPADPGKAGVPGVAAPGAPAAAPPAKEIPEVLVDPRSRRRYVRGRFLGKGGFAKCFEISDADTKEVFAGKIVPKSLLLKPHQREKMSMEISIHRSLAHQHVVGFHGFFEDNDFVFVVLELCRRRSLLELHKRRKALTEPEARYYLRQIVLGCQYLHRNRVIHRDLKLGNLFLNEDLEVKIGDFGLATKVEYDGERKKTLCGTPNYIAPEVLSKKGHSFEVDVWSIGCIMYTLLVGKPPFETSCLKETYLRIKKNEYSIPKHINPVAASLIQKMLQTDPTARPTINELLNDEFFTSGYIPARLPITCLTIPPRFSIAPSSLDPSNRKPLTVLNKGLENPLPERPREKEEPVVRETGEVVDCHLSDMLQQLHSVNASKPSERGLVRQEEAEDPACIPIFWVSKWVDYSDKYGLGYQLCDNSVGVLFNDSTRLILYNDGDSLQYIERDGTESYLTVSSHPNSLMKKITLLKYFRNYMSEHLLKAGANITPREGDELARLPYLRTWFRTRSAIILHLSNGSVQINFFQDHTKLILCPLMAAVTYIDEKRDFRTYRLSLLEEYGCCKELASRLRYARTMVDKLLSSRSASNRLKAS
UniProt P48739: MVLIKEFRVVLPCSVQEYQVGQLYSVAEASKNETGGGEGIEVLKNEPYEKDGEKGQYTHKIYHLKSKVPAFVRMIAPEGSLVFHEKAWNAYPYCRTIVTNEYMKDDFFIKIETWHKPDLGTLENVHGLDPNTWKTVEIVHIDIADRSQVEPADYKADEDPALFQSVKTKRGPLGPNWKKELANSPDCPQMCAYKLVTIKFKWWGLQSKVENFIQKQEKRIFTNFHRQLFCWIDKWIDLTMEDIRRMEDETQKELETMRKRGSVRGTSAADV
UniProt O75439: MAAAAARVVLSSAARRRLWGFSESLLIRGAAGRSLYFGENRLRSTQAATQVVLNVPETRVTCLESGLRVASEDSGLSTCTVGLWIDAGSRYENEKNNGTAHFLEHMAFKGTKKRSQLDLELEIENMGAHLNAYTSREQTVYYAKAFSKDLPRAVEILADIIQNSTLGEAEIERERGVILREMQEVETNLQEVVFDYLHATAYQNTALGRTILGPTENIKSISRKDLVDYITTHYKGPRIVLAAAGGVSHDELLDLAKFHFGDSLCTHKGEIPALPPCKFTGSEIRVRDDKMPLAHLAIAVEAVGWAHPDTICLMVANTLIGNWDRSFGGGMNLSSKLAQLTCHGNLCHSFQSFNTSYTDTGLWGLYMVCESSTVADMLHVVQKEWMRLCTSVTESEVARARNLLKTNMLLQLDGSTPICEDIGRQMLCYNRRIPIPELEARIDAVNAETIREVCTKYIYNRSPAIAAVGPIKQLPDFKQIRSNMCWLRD
UniProt P14618, whole entry, looked up: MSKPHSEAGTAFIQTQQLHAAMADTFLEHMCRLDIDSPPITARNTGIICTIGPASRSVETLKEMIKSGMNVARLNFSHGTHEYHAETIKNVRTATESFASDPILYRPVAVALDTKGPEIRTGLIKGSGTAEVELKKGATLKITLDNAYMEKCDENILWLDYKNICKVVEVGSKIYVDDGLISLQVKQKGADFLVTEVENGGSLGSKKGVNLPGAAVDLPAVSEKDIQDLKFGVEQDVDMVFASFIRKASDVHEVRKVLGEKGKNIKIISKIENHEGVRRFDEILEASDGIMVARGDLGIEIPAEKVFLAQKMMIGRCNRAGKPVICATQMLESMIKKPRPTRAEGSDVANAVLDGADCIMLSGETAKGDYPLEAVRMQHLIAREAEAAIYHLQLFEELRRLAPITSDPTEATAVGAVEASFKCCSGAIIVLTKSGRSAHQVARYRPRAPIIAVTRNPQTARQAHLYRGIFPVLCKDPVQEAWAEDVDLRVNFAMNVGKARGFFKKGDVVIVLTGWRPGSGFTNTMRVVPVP
UniProt P29590: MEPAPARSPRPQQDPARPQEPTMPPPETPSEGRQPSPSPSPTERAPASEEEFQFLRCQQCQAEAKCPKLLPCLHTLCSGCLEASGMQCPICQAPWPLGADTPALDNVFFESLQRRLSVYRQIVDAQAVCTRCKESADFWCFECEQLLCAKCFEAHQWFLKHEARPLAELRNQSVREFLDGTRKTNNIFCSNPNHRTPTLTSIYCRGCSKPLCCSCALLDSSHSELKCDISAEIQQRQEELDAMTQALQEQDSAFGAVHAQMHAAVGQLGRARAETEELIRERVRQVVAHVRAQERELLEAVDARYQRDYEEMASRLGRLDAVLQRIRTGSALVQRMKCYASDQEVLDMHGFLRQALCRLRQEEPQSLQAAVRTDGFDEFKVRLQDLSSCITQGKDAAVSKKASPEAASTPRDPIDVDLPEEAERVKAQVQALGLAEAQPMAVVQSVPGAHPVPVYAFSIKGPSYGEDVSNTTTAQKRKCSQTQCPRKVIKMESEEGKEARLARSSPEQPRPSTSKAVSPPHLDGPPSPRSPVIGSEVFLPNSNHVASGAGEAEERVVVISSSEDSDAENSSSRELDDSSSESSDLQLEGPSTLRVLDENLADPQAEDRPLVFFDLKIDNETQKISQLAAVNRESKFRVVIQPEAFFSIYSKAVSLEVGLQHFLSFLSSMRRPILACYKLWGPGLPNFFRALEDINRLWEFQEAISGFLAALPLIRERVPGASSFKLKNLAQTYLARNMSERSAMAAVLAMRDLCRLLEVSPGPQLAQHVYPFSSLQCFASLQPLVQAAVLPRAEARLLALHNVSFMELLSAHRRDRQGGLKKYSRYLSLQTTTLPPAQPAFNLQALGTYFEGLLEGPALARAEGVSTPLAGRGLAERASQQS
UniProt Q16512: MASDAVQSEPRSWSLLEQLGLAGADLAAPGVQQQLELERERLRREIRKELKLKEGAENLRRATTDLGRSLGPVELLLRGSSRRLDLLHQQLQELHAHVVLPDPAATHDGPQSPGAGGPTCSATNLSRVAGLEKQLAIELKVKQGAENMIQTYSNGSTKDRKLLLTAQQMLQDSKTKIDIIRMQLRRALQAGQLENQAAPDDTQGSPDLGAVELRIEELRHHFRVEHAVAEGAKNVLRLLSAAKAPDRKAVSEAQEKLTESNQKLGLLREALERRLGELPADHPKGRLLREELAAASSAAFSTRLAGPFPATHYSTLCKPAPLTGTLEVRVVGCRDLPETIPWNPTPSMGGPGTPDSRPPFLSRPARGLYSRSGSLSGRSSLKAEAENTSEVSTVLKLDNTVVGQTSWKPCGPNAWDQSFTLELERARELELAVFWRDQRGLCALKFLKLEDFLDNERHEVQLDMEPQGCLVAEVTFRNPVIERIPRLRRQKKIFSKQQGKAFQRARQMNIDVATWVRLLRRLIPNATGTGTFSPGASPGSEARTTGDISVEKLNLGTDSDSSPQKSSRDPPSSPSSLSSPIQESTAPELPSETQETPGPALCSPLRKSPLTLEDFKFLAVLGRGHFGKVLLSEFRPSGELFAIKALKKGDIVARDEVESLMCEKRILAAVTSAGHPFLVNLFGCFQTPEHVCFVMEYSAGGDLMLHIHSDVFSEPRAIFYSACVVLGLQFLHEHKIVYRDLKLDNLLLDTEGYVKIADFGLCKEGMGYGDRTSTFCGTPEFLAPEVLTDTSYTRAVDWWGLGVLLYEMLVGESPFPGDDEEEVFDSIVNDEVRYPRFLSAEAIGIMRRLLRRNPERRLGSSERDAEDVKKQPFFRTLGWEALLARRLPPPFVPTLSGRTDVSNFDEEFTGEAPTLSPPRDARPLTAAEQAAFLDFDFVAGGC

Each target was assayed with CC1Cc2ccccc2N1C(=O)C1CCCN(C1)C(=O)CCl (mixture of isomers) [TRIM25 ligand 11 (diastereomer mixture)] (assay: probe-labelled cysteine peptide fold change vs DMSO (competition) (log2 fold change); higher = less target engagement (more negative = stronger competition)). Conditions: 10 µM; THP-1; incubation time: 4 h.
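Also: competitive chemoproteomic profiling in live THP-1 cells with an iodoacetamide desthiobiotin (IA-DTB) probe, comparing probe-labelled peptide intensities in compound-treated cells against DMSO-treated controls.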

Target	probe-labelled cysteine peptide fold change
PLCG1_P19174_1088_GLEPCAISIEVLGAR (UniProt P19174)	0.0595
PIK3R4_Q99570_1180_FQLPISSHCHPSR (UniProt Q99570)	0.163
PLK1_P53350_372_ETGEVVDCHLSDMLQQLHSVNASKPSER (UniProt P53350)	0.122
PIK3C2A_O00443_541_HLYQIEKPCK (UniProt O00443)	-0.358
PITPNB_P48739_13_VVLPCSVQEYQVGQLYSVAEASK (UniProt P48739)	0.0171
PMPCB_O75439_265_FHFGDSLCTHK (UniProt O75439)	0.0698
PKM_P14618-2_423_CLAAALIVLTESGR (UniProt P14618)	0.102
PNKP_Q96T60_445_AAGVPCR (UniProt Q96T60)	-0.15
PIKFYVE_Q9Y2I7_421_WLDCVSHHDQLFR (UniProt Q9Y2I7)	0.274
PML_P29590_338_CYASDQEVLDMHGFLR (UniProt P29590)	0.0065
PLEKHG2_Q9H7P9_405_RLWIHCLQR (UniProt Q9H7P9)	-0.0889
PKN1_Q16512_442_GLCALK (UniProt Q16512)	-0.0211
PLPPR3_Q6T4P5_54_VGFQCYDR (UniProt Q6T4P5)	0.0205
PLEKHF2_Q9H8W4_158_TPSNEHAAVWVPDSEATVCMR (UniProt Q9H8W4)	-0.12
PLXNB2_O15031_555_RAQGEVQLTVSPLPALSEEDELLCLFGESPPHPAR (UniProt O15031)	0.112
PLCG1_P19174_106_YQEDPAFRPDQSHCFVILYGMEFR (UniProt P19174)	0.0121

Taken from above:
Entry for PMPCB_O75439_265_FHFGDSLCTHK (UniProt O75439) under probe-labelled cysteine peptide fold change: 0.0698
Entry for PLCG1_P19174_106_YQEDPAFRPDQSHCFVILYGMEFR (UniProt P19174) under probe-labelled cysteine peptide fold change: 0.0121
